Data published in the supplement of paper PMC10849652.
The other results are listed elsewhere or left out.

Protein sequences, listed by entry. Tags and fused reporters are not part of them. Lines headed by an entry give the natural chain unless they say otherwise; changes in a name come on top.
UniProt O75306, whole entry, looked up: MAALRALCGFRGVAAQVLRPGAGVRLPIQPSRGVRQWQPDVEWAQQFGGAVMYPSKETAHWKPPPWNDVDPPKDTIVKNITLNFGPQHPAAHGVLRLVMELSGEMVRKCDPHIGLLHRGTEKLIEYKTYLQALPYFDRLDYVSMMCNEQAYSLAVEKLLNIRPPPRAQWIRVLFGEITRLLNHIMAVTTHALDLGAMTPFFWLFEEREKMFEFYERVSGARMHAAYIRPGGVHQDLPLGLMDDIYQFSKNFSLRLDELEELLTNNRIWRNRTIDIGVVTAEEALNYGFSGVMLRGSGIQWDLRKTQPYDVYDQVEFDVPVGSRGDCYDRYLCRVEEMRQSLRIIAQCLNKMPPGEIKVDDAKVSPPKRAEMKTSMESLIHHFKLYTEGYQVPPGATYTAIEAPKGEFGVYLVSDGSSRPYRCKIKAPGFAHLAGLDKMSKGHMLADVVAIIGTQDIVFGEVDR
UniProt Q15788: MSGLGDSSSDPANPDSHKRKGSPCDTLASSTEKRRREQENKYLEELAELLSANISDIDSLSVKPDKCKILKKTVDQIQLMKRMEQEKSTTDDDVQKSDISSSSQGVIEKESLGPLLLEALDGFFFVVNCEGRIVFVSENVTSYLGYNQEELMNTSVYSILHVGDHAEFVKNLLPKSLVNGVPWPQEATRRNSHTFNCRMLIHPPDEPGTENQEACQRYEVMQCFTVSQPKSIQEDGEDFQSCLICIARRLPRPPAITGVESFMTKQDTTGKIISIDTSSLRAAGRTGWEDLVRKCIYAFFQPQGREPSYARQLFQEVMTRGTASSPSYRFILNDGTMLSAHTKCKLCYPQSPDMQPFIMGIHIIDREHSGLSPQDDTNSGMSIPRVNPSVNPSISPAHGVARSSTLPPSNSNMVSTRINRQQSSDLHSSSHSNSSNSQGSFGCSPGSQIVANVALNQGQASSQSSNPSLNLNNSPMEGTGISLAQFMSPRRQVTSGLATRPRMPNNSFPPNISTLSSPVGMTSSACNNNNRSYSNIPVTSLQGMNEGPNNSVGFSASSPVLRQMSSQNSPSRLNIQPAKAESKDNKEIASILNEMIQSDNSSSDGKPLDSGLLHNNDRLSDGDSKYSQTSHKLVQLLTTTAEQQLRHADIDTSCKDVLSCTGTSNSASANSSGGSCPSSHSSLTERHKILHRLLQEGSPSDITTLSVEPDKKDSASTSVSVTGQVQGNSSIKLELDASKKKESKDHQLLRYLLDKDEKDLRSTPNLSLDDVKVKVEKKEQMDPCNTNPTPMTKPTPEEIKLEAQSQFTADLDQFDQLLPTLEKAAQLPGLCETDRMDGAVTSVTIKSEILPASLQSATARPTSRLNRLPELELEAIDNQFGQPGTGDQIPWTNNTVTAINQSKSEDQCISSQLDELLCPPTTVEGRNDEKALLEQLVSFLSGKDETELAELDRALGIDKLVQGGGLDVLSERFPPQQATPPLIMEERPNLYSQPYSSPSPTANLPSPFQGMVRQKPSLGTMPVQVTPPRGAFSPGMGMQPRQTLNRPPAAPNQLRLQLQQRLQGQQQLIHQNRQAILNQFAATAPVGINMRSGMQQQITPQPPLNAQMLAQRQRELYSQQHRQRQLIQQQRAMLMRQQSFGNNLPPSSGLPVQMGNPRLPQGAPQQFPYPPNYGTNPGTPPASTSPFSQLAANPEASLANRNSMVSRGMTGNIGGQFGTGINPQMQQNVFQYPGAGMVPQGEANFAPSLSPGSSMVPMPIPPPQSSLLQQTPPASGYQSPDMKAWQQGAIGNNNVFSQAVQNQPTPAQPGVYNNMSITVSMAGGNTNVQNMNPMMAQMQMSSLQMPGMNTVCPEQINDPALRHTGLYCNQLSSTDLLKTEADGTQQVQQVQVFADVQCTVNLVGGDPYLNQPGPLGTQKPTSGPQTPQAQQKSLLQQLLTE
UniProt Q9Y2A7: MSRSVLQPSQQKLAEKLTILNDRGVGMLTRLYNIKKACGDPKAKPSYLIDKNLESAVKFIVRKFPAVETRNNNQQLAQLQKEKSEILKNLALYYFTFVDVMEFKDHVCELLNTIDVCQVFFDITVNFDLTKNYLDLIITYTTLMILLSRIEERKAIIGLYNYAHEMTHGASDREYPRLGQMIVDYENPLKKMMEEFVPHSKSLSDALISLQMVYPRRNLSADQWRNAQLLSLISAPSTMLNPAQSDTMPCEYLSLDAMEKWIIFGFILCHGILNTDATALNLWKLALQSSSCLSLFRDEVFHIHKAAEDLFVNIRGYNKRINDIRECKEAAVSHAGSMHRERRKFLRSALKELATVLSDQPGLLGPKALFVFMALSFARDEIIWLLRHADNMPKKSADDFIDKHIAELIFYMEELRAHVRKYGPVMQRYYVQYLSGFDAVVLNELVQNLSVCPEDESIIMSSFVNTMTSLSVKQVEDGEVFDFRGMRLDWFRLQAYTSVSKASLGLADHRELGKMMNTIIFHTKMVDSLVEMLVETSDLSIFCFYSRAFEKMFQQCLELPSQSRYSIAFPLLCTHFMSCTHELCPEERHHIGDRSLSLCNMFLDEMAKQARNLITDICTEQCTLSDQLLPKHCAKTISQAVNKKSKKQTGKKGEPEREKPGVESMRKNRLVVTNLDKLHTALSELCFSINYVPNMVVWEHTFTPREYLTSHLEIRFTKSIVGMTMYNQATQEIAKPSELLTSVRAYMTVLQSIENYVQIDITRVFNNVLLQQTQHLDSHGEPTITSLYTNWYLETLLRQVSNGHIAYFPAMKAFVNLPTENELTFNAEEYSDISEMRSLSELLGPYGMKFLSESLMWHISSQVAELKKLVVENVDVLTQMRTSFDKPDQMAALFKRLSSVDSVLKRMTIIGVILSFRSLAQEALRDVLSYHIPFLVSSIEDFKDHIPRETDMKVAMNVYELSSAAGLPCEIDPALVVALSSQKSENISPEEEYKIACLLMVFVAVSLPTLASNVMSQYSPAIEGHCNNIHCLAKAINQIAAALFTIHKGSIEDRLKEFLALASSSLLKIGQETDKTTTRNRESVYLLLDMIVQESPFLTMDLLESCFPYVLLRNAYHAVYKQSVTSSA
UniProt Q99747: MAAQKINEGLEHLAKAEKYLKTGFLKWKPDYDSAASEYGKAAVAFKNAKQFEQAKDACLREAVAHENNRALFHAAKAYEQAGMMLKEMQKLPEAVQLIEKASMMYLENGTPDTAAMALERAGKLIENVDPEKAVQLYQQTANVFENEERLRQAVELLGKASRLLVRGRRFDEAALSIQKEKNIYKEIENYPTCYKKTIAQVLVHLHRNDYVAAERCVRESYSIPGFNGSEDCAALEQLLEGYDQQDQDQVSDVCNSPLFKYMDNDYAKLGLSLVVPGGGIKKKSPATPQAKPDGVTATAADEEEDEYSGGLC
UniProt Q69YL0: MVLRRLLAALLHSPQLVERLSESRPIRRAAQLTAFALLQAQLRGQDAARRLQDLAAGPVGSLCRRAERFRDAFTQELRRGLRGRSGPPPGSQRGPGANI
UniProt Q6P582, whole entry, looked up: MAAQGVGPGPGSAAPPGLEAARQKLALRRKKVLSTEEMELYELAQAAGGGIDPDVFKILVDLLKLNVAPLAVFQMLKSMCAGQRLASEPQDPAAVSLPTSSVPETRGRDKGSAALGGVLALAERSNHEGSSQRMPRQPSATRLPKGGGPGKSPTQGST
UniProt O43678, whole entry, looked up: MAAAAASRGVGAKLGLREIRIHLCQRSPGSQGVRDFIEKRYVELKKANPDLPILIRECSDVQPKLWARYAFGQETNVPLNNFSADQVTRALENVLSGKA
UniProt P54802: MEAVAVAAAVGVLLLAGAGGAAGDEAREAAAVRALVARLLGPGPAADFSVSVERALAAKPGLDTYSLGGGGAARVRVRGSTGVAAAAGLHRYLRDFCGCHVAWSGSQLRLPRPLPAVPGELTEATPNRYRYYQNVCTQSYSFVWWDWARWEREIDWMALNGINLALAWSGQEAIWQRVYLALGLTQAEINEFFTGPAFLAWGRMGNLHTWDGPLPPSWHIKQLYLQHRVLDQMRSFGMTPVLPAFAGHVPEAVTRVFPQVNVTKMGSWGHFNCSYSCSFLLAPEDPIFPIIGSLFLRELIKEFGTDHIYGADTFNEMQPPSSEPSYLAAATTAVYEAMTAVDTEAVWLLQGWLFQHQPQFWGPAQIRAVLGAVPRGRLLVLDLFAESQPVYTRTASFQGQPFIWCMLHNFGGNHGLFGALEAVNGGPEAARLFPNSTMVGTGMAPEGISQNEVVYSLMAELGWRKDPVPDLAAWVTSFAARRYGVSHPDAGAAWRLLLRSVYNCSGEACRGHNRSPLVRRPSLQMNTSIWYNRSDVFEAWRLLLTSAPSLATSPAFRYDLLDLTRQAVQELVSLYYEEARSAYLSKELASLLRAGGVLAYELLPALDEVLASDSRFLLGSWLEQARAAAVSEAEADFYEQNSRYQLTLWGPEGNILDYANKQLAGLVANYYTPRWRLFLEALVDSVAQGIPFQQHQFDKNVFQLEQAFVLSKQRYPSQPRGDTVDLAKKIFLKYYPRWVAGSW
UniProt Q6NZ67, whole entry, looked up: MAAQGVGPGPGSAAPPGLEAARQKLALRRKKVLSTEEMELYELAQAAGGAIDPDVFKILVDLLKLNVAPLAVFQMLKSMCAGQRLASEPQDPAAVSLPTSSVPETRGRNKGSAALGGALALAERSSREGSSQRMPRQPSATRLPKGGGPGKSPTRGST
UniProt O95168, whole entry, looked up: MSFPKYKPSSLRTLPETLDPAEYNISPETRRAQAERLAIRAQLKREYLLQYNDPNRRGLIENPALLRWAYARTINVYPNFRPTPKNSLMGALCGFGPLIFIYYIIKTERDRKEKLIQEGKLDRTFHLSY
UniProt O95299, whole entry, looked up: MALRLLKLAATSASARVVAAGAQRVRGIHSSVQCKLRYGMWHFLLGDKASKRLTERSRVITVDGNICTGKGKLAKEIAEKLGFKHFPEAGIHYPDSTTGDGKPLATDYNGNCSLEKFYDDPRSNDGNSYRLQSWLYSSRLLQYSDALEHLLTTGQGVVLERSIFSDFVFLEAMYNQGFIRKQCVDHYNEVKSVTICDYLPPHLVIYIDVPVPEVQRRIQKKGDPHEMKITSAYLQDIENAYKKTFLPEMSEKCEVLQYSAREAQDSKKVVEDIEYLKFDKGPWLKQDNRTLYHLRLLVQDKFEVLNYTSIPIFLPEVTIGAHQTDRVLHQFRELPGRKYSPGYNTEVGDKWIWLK
UniProt O95182, whole entry, looked up: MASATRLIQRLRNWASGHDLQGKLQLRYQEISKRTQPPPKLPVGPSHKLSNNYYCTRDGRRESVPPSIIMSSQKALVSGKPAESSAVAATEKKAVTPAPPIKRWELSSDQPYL
UniProt P17568, whole entry, looked up: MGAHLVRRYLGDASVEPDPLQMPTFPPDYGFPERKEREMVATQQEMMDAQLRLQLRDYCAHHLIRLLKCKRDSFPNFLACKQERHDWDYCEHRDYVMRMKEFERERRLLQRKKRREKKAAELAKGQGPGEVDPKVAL
UniProt Q9BU61: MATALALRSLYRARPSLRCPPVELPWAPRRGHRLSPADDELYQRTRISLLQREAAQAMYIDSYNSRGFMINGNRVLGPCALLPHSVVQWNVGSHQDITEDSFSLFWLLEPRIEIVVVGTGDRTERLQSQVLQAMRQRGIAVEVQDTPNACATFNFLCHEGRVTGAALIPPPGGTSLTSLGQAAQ
UniProt Q15003, whole entry, looked up: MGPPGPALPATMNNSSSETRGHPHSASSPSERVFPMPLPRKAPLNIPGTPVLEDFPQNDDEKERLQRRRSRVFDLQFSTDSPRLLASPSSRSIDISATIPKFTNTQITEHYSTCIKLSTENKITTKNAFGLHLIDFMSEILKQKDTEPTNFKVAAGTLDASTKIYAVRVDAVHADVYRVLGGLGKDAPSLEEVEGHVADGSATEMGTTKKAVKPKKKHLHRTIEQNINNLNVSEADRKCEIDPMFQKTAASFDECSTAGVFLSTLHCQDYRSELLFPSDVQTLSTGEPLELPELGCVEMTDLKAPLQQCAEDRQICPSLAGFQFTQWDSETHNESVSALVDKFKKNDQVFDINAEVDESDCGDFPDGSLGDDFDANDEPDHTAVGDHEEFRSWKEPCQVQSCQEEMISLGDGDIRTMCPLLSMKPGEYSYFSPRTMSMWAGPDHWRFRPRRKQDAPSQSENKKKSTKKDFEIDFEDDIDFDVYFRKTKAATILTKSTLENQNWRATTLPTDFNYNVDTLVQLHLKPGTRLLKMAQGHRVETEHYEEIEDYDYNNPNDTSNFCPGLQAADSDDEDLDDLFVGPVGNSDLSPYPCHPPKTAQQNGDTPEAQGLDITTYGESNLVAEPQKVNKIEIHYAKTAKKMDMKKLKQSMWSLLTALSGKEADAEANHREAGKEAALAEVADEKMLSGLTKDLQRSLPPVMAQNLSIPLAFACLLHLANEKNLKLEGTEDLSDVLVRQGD
UniProt O95167, whole entry, looked up: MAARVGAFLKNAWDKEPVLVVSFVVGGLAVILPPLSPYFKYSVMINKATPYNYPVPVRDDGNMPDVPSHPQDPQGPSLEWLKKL
UniProt O75438, whole entry, looked up: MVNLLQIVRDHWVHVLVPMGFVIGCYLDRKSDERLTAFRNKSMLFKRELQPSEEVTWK
UniProt Q9UI09, whole entry, looked up: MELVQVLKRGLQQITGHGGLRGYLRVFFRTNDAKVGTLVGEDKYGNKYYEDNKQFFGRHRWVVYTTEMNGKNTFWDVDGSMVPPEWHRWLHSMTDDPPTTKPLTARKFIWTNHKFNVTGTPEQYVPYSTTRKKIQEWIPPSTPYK

What was measured:
Assay in all cases: log2 fold change, soluble protein after heating vs DMSO (PISA); higher = thermal stabilisation; K562 cells, 10 uM, 30 min; active = over 0.2 and 3.5 SD of the protein, either way, in both replicates (recomputed)
[1] = compound: C1=CC=C(C=C1)[C@H](COC2=CC3=C(C=C2)NC(=O)N3)NC(=O)C4=CC=CN(C4=O)CC5=CC(=C(C=C5)F)F
Summary of the method: (§1)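 Thermal stability values are relative to control samples and come from duplicates. They are expressed as log2 fold changes. For measurement, K562 cells (2×10^6 cells/mL) received 10 μM compound for 30 min, and aliquots were heated for 3 min over 48°C-58°C, pooled, and extracted at 4°C in PBS with 0.5% NP-40. Soluble protein, the supernatant after 21,000xg for 90 min, was quantified by TMTpro 16plex LC-MS/MS with equalised channel sums.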

[2] = compound: CC1=C(SC2=C1C(=N[C@H](C3=NN=C(N32)C)CC(=O)N)C4=CC=C(C=C4)Cl)C
Summary of the method: as §1

[3] = compound: CC1=C2C(=CC=C1)N=C(N(C2=O)C3=CC=CC=C3C)CN4C=NC5=C(N=CN=C54)N
Summary of the method: as §1

[4] = compound: Cc1sc2c(c1C)C(c1ccc(Cl)cc1)=N[C@@H](CC(=O)OC(C)(C)C)c1nnc(C)n1-2
Summary of the method: as §1

[5] = compound: c1ccc([C@@H]2C[C@H]2NC2CCNCC2)cc1
Summary of the method: as §1

Measured: log2 fold change

NDEL1 isoform 2 (UniProt Q9GZM8)
inactive: [1] -0.089 | [2] 0.063 | [3] 0.01 | [4] 0.025 | [5] -0.103

NCS1 (UniProt P62166)
inactive: [1] 0.005 | [2] 0.052 | [3] 0.059 | [4] -0.025 | [5] -0.017

NDUFB5 (UniProt O43674)
inactive: [1] 0.008 | [2] 0.019 | [3] -0.029 | [4] -0.019 | [5] 0.009

N6AMT1 (UniProt Q9Y5N5)
inactive: [1] -0.033 | [2] 0.059 | [3] 0.09 | [4] -0.175 | [5] 0.004

N4BP1 (UniProt O75113)
inactive: [1] 0.043 | [2] 0.043 | [3] 0.155 | [4] 0.004 | [5] 0.001

NDUFAF2 (UniProt Q8N183)
inactive: [1] 0.032 | [2] 0.024 | [3] 0.029 | [4] 0.001 | [5] 0.022

NA, A0A096LPI6
inactive: [1] 0.055 | [2] -0.023 | [3] -0.001 | [4] 0.017 | [5] 0.023

NDUFS2 (UniProt O75306)
inactive: [1] -0.018 | [2] 0.011 | [3] -0.019 | [4] -0.038 | [5] -0.044

NCSTN (UniProt Q92542)
inactive: [1] 0.008 | [2] 0.008 | [3] 0.012 | [4] 0.003 | [5] 0.041

NCOA1 (UniProt Q15788)
inactive: [1] -0.155 | [2] -0.032 | [3] 0.156 | [4] 0.007 | [5] 0.012

NAT14 (UniProt Q8WUY8)
inactive: [1] -0.059 | [2] 0.055 | [3] -0.087 | [4] 0.043 | [5] -0.047

NDUFB11 isoform 2 (UniProt Q9NX14)
inactive: [1] 0.043 | [2] 0.081 | [3] -0.013 | [4] -0.101 | [5] -0.021

NCKAP1 isoform 2 (UniProt Q9Y2A7)
inactive: [1] -0.037 | [2] 0.035 | [3] 0.003 | [4] 0.007 | [5] -0.004

NACA4P (UniProt Q9BZK3)
inactive: [1] -0.171 | [2] 0.23 | [3] 0.035 | [4] 0.278 | [5] -0.069

NAMPT (UniProt P43490)
inactive: [1] 0.021 | [2] -0.001 | [3] 0.008 | [4] -0.012 | [5] 0.003

NDC1 (UniProt Q9BTX1)
inactive: [1] 0.009 | [2] 0.078 | [3] 0.02 | [4] -0.054 | [5] -0.031

NCAPG2 isoform 2 (UniProt Q86XI2)
inactive: [1] -0.002 | [2] -0.104 | [3] -0.001 | [4] 0.018 | [5] -0.109

NEFH (UniProt P12036)
inactive: [1] 0.246 | [2] -0.267 | [3] -0.069 | [4] 0.076 | [5] 0.071

NAPG (UniProt Q99747)
inactive: [1] -0.036 | [2] 0.044 | [3] 0.073 | [4] -0.023 | [5] -0.077

Reprinted from the listing (16 entries):
NDUFB5 (UniProt O43674)
inactive: [1] 0.008 | [2] 0.019 | [3] -0.029 | [4] -0.019 | [5] 0.009

N6AMT1 (UniProt Q9Y5N5)
inactive: [1] -0.033 | [2] 0.059 | [3] 0.09 | [4] -0.175 | [5] 0.004

N4BP1 (UniProt O75113)
inactive: [1] 0.043 | [2] 0.043 | [3] 0.155 | [4] 0.004 | [5] 0.001

NDUFAF2 (UniProt Q8N183)
inactive: [1] 0.032 | [2] 0.024 | [3] 0.029 | [4] 0.001 | [5] 0.022

NA, A0A096LPI6
inactive: [1] 0.055 | [2] -0.023 | [3] -0.001 | [4] 0.017 | [5] 0.023

NDUFS2 (UniProt O75306)
inactive: [1] -0.018 | [2] 0.011 | [3] -0.019 | [4] -0.038 | [5] -0.044

NCSTN (UniProt Q92542)
inactive: [1] 0.008 | [2] 0.008 | [3] 0.012 | [4] 0.003 | [5] 0.041

NCOA1 (UniProt Q15788)
inactive: [1] -0.155 | [2] -0.032 | [3] 0.156 | [4] 0.007 | [5] 0.012

NAT14 (UniProt Q8WUY8)
inactive: [1] -0.059 | [2] 0.055 | [3] -0.087 | [4] 0.043 | [5] -0.047

NDUFB11 isoform 2 (UniProt Q9NX14)
inactive: [1] 0.043 | [2] 0.081 | [3] -0.013 | [4] -0.101 | [5] -0.021

NCKAP1 isoform 2 (UniProt Q9Y2A7)
inactive: [1] -0.037 | [2] 0.035 | [3] 0.003 | [4] 0.007 | [5] -0.004

NACA4P (UniProt Q9BZK3)
inactive: [1] -0.171 | [2] 0.23 | [3] 0.035 | [4] 0.278 | [5] -0.069

NAMPT (UniProt P43490)
inactive: [1] 0.021 | [2] -0.001 | [3] 0.008 | [4] -0.012 | [5] 0.003

NDC1 (UniProt Q9BTX1)
inactive: [1] 0.009 | [2] 0.078 | [3] 0.02 | [4] -0.054 | [5] -0.031

NCAPG2 isoform 2 (UniProt Q86XI2)
inactive: [1] -0.002 | [2] -0.104 | [3] -0.001 | [4] 0.018 | [5] -0.109

NEFH (UniProt P12036)
inactive: [1] 0.246 | [2] -0.267 | [3] -0.069 | [4] 0.076 | [5] 0.071

Additional records follow.

NCBP2AS2 (UniProt Q69YL0)
inactive: [1] 0.02 | [2] 0.019 | [3] 0.048 | [4] -0.038 | [5] -0.003

NDUFB6 (UniProt O95139)
inactive: [1] 0 | [2] -0.016 | [3] 0.029 | [4] 0.034 | [5] 0.073

MZT2A (UniProt Q6P582)
inactive: [1] 0.008 | [2] 0.051 | [3] 0.037 | [4] -0.06 | [5] 0.047

NDUFA2 (UniProt O43678)
inactive: [1] 0.022 | [2] 0.111 | [3] 0.085 | [4] -0.097 | [5] -0.069

NAGLU (UniProt P54802)
inactive: [1] 0.074 | [2] -0.028 | [3] 0.026 | [4] -0.065 | [5] 0.017

MZT2B (UniProt Q6NZ67)
inactive: [1] 0.012 | [2] 0.23 | [3] -0.019 | [4] 0.02 | [5] 0.085

NADSYN1 (UniProt Q6IA69)
inactive: [1] 0.04 | [2] 0.005 | [3] 0.038 | [4] 0 | [5] 0.008

NAGA (UniProt P17050)
inactive: [1] -0.043 | [2] -0.026 | [3] -0.028 | [4] 0.025 | [5] 0.062

NDUFB4 (UniProt O95168)
inactive: [1] 0.074 | [2] 0.022 | [3] 0.084 | [4] -0.043 | [5] -0.028

NDUFB8 (UniProt O95169)
inactive: [1] 0.049 | [2] 0.045 | [3] 0.02 | [4] -0.002 | [5] 0.089

NDUFA10 (UniProt O95299)
inactive: [1] -0.023 | [2] -0.001 | [3] 0.064 | [4] -0.041 | [5] -0.019

NDUFA7 (UniProt O95182)
inactive: [1] 0.007 | [2] 0.002 | [3] 0.007 | [4] 0.008 | [5] 0.034

NCAPD2 (UniProt Q15021)
inactive: [1] -0.078 | [2] 0.04 | [3] 0.044 | [4] 0.016 | [5] 0.007

NDUFS5 (UniProt O43920)
inactive: [1] 0.036 | [2] -0.02 | [3] -0.002 | [4] 0.007 | [5] -0.006

NANS (UniProt Q9NR45)
inactive: [1] -0.031 | [2] 0.065 | [3] 0.071 | [4] -0.015 | [5] -0.024

NDUFB9 (UniProt Q9Y6M9)
inactive: [1] 0.043 | [2] 0.02 | [3] 0.063 | [4] -0.023 | [5] -0.02

NDUFB7 (UniProt P17568)
inactive: [1] -0.032 | [2] -0.01 | [3] -0.004 | [4] -0.015 | [5] 0.03

NA isoform 3 (UniProt Q4G0T1)
inactive: [1] 0.161 | [2] -0.017 | [3] 0.026 | [4] 0.024 | [5] -0.126

NDUFAF3 (UniProt Q9BU61)
inactive: [1] -0.014 | [2] 0.093 | [3] 0.03 | [4] -0.079 | [5] -0.041

NCAPH (UniProt Q15003)
inactive: [1] -0.067 | [2] 0.011 | [3] 0.109 | [4] -0.007 | [5] 0.001

NARS2 (UniProt Q96I59)
inactive: [1] 0 | [2] 0.057 | [3] 0.059 | [4] 0 | [5] -0.027

NAXD (UniProt Q8IW45)
inactive: [1] 0.065 | [2] 0.009 | [3] -0.003 | [4] 0.017 | [5] 0.02

NDUFA3 (UniProt O95167)
inactive: [1] 0.112 | [2] 0.14 | [3] 0.102 | [4] -0.176 | [5] 0.066

NCR3LG1 (UniProt Q68D85)
inactive: [1] -0.022 | [2] -0.031 | [3] 0.012 | [4] 0.036 | [5] -0.021

NAA25 (UniProt Q14CX7)
inactive: [1] 0.006 | [2] 0.059 | [3] 0.055 | [4] -0.017 | [5] -0.025

NAA10 (UniProt P41227)
inactive: [1] 0.021 | [2] 0.041 | [3] -0.01 | [4] -0.033 | [5] -0.036

NDUFA13 (UniProt Q9P0J0)
inactive: [1] 0.012 | [2] 0.045 | [3] 0.141 | [4] -0.112 | [5] -0.015

NDUFB1 (UniProt O75438)
inactive: [1] -0.004 | [2] -0.059 | [3] -0.056 | [4] -0.138 | [5] 0.055

NDUFA12 (UniProt Q9UI09)
inactive: [1] -0.046 | [2] 0.126 | [3] 0.145 | [4] -0.086 | [5] -0.051

NDUFA5 (UniProt Q16718)
inactive: [1] 0.033 | [2] 0.139 | [3] 0.08 | [4] -0.169 | [5] -0.137

NADK (UniProt O95544)
inactive: [1] -0.006 | [2] 0.029 | [3] 0.047 | [4] 0.017 | [5] 0.009

NCK2 (UniProt O43639)
inactive: [1] -0.057 | [2] 0.066 | [3] 0.259 | [4] -0.143 | [5] -0.015

MYO9B (UniProt Q13459)
inactive: [1] -0.062 | [2] -0.012 | [3] 0.116 | [4] 0.125 | [5] -0.015

NCALD (UniProt P61601)
inactive: [1] -0.018 | [2] 0.062 | [3] 0.044 | [4] 0.035 | [5] -0.03
